Source: article PMC8435287
Results are given in words; binding and its absence hold for the method and conditions named. In cells and extracts the contact can be indirect. These calls come from enrichment with a bait or labelling near it, and not all partners need be listed.

Amino acid sequences for entries named in this document (tags omitted). A change or cut given only in a name is not applied to a line headed by its entry.
UniProt Q8I3T5: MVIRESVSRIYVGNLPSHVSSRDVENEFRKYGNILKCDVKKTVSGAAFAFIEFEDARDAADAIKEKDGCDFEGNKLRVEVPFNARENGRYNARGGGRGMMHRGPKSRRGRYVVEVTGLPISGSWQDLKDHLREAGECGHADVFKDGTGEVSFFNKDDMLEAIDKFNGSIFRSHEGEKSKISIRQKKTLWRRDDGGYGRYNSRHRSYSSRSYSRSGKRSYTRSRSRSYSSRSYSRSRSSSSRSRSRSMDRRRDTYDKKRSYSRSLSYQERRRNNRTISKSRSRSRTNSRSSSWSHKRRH

Biological target: Halo-PfSR1 (P. falciparum SR1 fused with a Halo tag at the N-terminus) (P. falciparum) (UniProt Q8I3T5)
Assay: affinity purification with mass spectrometry; Halo-PfSR1 from lysates of tightly synchronized early (20 hpi) and late (36 hpi) stage parasites captured on HaloLink resin overnight at 4°C (lysis: 50 mM Tris-HCl pH 7.5, 150 mM NaCl, 1% Triton X-100, 0.1% sodium deoxycholate); eluates analysed by LC-MS/MS; compared with a mock plasmid expressing only the Halo tag; hits enriched more than 8-fold or found only with Halo-PfSR1 in at least two replicates

binding: binds
B1: MCM4 (protein, UniProt Q9GR06 1-1005)
chain: MGTPRRRLGQQNNNNNSPFALSSSNIFGSNNEIFGSNFMHTPMSSRRTKNSKSFLNSMLNESRYLNQSNAGSQFIKYGHTPLAIRRIKCARADIGDVGREAFMEDEESGRLPHFIDSNLEQIKELFNQFFDEFNITNYSDVLDFTDEDRSISEYILLHRDNLKVYLAYYGWKMIKFIETGRQNECRLNNTNYEDDDENNENSEGIRNLEHIKSFEIDLTHIFFFNKKLYKLIIEYPSDCISEIDKIISTKYNSLLALVLEGDTRSSSSDKYPLSSTKQDYCRVRFFNKKHKDTPRKLGPNQIETLVCVKGVIIRCSNIIPEMTMAAFKCTSKKRIGVNNYEKCNEEVYEHVIQGEVQEPVTCSNCNNKNTFELWHNNCCFSSKQLIKLSEVTEHLKQGETPQSISIYAYDDLIDYTKPGDTVELTGILKASPVRLNPRSRCYNSVHRTYINVIHIKKENKQKMKLTEQNDTANIILKRNEDGTVEENFEKLNEQGNLLFTTEVIQKMEQLSKDPNIYQRLVDSIAPSIYGRGDIKKGLLCQLFGGSKITDKYNNKYRSEIHILLRGDPSTAKSQLLHYVHKLSPRGIYTSGKGSSSVGLTAFISKDSETKEYILESGAVVLSDKGICCIDEFDKMDDSARAILHEVMEQQTVTIAKAGIVATLNARTSILASANPINSRYDKNKAVVENINLPPSLFSRFDLIYLVIDQANEDEDRKLATVLCKNFSYNPEEEEDEDQEDQEEDEPNYITQQRARKSKGTSRKNERENYYNDGDNDDDDDISNYLNDSNDAQNKRGSWANVNISYDEYNNSSNKKTSKNYLIDSNTLALYIAYCRITCNPIISLESKKIIIEEYIKMRCKEGTKSPTASPRQLEGLVRLSQSLAKMKLKRVVSPEEANEAVRLMNIATFQSLIDPLSGRIDFDQVNLGQTSQHKKKSDLIKDIIMNALVLKNMTKDELLTHCHETIMNDPQHTTSMDRKSFEEAFYDLEKSQEITRLCSGLYKKK
